# Measurements reported in PubChem BioAssay AID1224828 (NIAID, 2016)
# Purpose: 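Knock-downs that increase or decrease LPS-induced p65 nuclear translocation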 (primary screen)
# Cell system: mouse RAW264.7 G9 macrophage reporter cells (GFP-p65, Tnf promoter-mCherry)
# Reagents: siRNA pool against mouse genes, 100 nM
# Time to read-out: 2 days siRNA transfection, then 40 min LPS before fixation
# Conditions: LPS (Salmonella minnesota R595) at 10 ng/ml
# Measured: 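Imaged p65 nuclear translocation ratio, normalised to the plate median, converted to robust z-scores and averaged across two replicates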
# Scale: p65 translocation robust z-score: higher = more nuclear NF-kappaB p65 after LPS than the plate median; nuclear/cytoplasmic p65 ratio: higher = more nuclear NF-kappaB p65
# Call rule: 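Active if robust z is above 3.3 (negative regulators) or below -1.56, the Tlr4 control median (positive regulators); activity score 50 or more; control wells not called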
# Meaning of the calls: active = hit (p65 shift raised or lowered); inactive = no clear change
# The whole screen tested about 17,000 reagents; below is a part drawn at random. Over the whole deposit, 762 (4.5%) were called active. 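Active calls include both raised and lowered p65 entry, mostly lowered; wells with fewer than 50 cells lack a z-score.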 Raw values are not corrected between plates.
Gene,p65 translocation robust z-score,"nuclear/cytoplasmic p65 ratio, rep 1","nuclear/cytoplasmic p65 ratio, rep 2",low cell count flag,activity call
Hps1,-0.04,1.34,1.45,enough cells to score,inactive
Pih1d1,-1.19,1.38,1.28,enough cells to score,inactive
Nfatc2,,0.972,1.15,fewer than 50 cells per well; well left out of scoring,inactive
Ninj1,1,1.65,1.48,enough cells to score,inactive
Coprs,1.38,1.49,1.65,enough cells to score,inactive
Lrrc47,,1.05,1.23,fewer than 50 cells per well; well left out of scoring,inactive
Mob3a,,1.64,1.98,fewer than 50 cells per well; well left out of scoring,inactive
Trim69,0.74,1.57,1.3,enough cells to score,inactive
Rnf20,,1.23,1.1,fewer than 50 cells per well; well left out of scoring,inactive
Ctnna2,1.01,1.72,1.4,enough cells to score,inactive
Cp,-0.83,1.42,1.22,enough cells to score,inactive
Ankef1,-1.07,1.47,1.45,enough cells to score,inactive
Folr2,1.48,1.72,1.47,enough cells to score,inactive
2310030G06Rik,,1.33,1.2,fewer than 50 cells per well; well left out of scoring,inactive
Dusp8,1.13,1.92,1.49,enough cells to score,inactive
Nat3,-0.08,1.76,1.59,enough cells to score,inactive
Boc,,1.36,1.54,fewer than 50 cells per well; well left out of scoring,inactive
Gm4792,,1.4,1.4,fewer than 50 cells per well; well left out of scoring,inactive
Peli2,,1.46,1.11,fewer than 50 cells per well; well left out of scoring,inactive
Fsd2,0.45,1.46,1.64,enough cells to score,inactive
Gfpt1,-0.41,1.47,1.46,enough cells to score,inactive
Hbb-b1,1.01,1.87,1.62,enough cells to score,inactive
Prm3,-1.07,1.24,1.09,enough cells to score,inactive
Il27,,1.3,1.28,fewer than 50 cells per well; well left out of scoring,inactive
Grcc10,,1.42,1.32,fewer than 50 cells per well; well left out of scoring,inactive
Tlr5,0.77,1.47,1.78,enough cells to score,inactive
a,-1.15,1.47,1.41,enough cells to score,inactive
Cdadc1,,1.8,1.36,fewer than 50 cells per well; well left out of scoring,inactive
Nudt7,-0.85,1.59,1.4,enough cells to score,inactive
Matr3,-0.6,1.31,1.31,enough cells to score,inactive
Rtl5,1.02,1.41,1.69,enough cells to score,inactive
Krt32,0.61,1.62,1.53,enough cells to score,inactive
Etnppl,-1.46,1.28,1.57,enough cells to score,inactive
Poc5,-1.34,1.21,1.25,enough cells to score,inactive
Or4k15b,,1.41,1.23,fewer than 50 cells per well; well left out of scoring,inactive
Brf2,-0.43,1.57,1.53,enough cells to score,inactive
Pign,0.47,1.53,1.3,enough cells to score,inactive
Galt,1.42,1.54,1.63,enough cells to score,inactive
Ins2,-0.51,1.37,1.34,enough cells to score,inactive
Mphosph8,,1.33,1.29,fewer than 50 cells per well; well left out of scoring,inactive
Vamp8,-0.24,1.5,1.29,enough cells to score,inactive
Prxl2a,0.27,1.4,1.5,enough cells to score,inactive
Gnl1,1.35,1.85,1.73,enough cells to score,inactive
Vmn1r42,,1.36,1.28,fewer than 50 cells per well; well left out of scoring,inactive
B3galnt1,1.22,1.71,1.47,enough cells to score,inactive
Aco1,-0.58,1.57,1.54,enough cells to score,inactive
Antxrl,-0.79,1.23,1.39,enough cells to score,inactive
Mgst1,-0.9,1.23,1.31,enough cells to score,inactive
Cdkl2,0.31,1.77,1.4,enough cells to score,inactive
Astl,2.49,1.94,2.22,enough cells to score,inactive
Or52j3,-1.23,1.3,1.11,enough cells to score,inactive
Alg12,0.67,1.73,1.77,enough cells to score,inactive
Sdhc,0.03,1.38,1.73,enough cells to score,inactive
Pcnx1,1.53,1.66,1.41,enough cells to score,inactive
Rpe,0.05,1.42,1.23,enough cells to score,inactive
Pcbp3,,1.31,1.15,fewer than 50 cells per well; well left out of scoring,inactive
Tll1,-0.28,1.42,1.54,enough cells to score,inactive
Kyat1,-1.15,1.44,1.58,enough cells to score,inactive
Yap1,-0.94,1.4,1.37,enough cells to score,inactive

5 entries from above, arranged by “nuclear/cytoplasmic p65 ratio, rep 2”, descending:
Gene,p65 translocation robust z-score,"nuclear/cytoplasmic p65 ratio, rep 1","nuclear/cytoplasmic p65 ratio, rep 2",low cell count flag,activity call
Gnl1,1.35,1.85,1.73,enough cells to score,inactive
Prxl2a,0.27,1.4,1.5,enough cells to score,inactive
Ins2,-0.51,1.37,1.34,enough cells to score,inactive
Mphosph8,,1.33,1.29,fewer than 50 cells per well; well left out of scoring,inactive
Vamp8,-0.24,1.5,1.29,enough cells to score,inactive
